## Primary screen of a compound library

Mtb glucose medium: 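Growth of Mycobacterium tuberculosis over 3 days (7H9 medium with glucose and tyloxapol); the read-out is not stated. Concentration: 500 µM. Direction is inferred from retests: higher values go with more growth inhibition. Size under these conditions: about 18,000 compounds, about 1,400 of them at 50% or above in at least one test.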
Mtb cholesterol medium: 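Growth of Mycobacterium tuberculosis over 4 days (cholesterol / DPPC medium with tyloxapol); the read-out is not stated. Tested at 500 µM. Direction is inferred from retests: higher values go with more growth inhibition. Of about 18,000 compounds tested this way, about 900 (5%) reached 50% or more in at least one test.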

Results are given as percent effect. The controls that fix the scale are not given in the record; negative values are as filed. Compounds were drawn at random from those tested, without regard to their results.

compound	Mtb glucose medium	Mtb cholesterol medium
CC(=O)c1cc(CN2Cc3cnn(CCO)c3C2)cs1	-6.77	-31.09
Cc1cc(N2CCN(C)CC2)n2ncnc2n1	6.204	0.9144
CSc1nnc(CN)n1C	-4.686	-9.39
NC(=O)CN1C(=O)CC2(CCCCC2)CC1=O	-8.551	-9.969
CS(=O)(=O)C1(CN)CCOCC1	17.38	10.45
CS(=O)(=O)NCCNC(=O)C1CCN(S(C)(=O)=O)CC1	0.03168	-19.22
Cc1ccn(CC(=O)N(C)CC(F)(F)F)c(=O)c1C#N	-3.853	-4.142
CCCn1nnc(NC(=O)c2cccnc2)n1	18.78	13.71
COc1ccc([C@H]2OCC[C@@H]2N)cn1	-6.234	-10
Cc1n[nH]cc1NC(=O)C1COc2ccccc2O1 (stereo not drawn)	30.94	-6.988
O=C(CC1CCc2ccccc21)NCCOCCO (stereo not drawn)	-1.213	2.077
Cc1cc(NC(=O)CN2CCn3ccnc3C2)on1	-8.621	-16.31
Cc1[nH]cnc1CN1CCC(Oc2ncccn2)CC1	21.83	1.203
NCCCc1nc2c(s1)CCCC2	3.826	0.6775
COc1ccc(CCN2CCNCC2)cc1	25.86	8.484
COC(=O)c1cnn(CC(=O)NC2CCCC2)c1	4.752	7.277
COCc1nn(Cc2ccccc2Cl)c(=O)o1	65.69	53.31
O=C(CNC1=NCCN1)Nc1cccc(F)c1	28.47	-9.754
CN1CCC(CN(C)C(=O)c2cccc(F)c2F)C1 (stereo not drawn)	8.893	2.617
N#CCCNC(=O)COc1cc(Cl)ccc1C(N)=O	22.84	-20.31
CCCSCCNC1CCNCC1	0.6428	-11.2
COC[C@H]1CCC[C@H]1NC(=O)CCn1cncn1	4.489	-0.5084
CN1CCN(S(C)(=O)=O)c2ccccc2C1	-13.35	-22.46
Cc1cc(C)n(CC(=O)NC(C)(C)C)n1	3.606	-13
CCNC(=O)CN1CCc2ccc(OC)cc2C1	28.01	10.3
O=C(CCC(F)(F)F)Nc1ccc2[nH]nnc2c1	40.72	24.48
CCNc1ncc(C(=O)N2CC[C@H]3CNC[C@H]32)cn1	2.756	3.039
CO[C@@H]1CNC[C@H]1O	-1.385	-0.9095
Cc1ccnc(NC(=O)C2SCCS2)n1	-0.535	-11.15
COCCN(C)CC(=O)N1C[C@@H](C)[C@@](C)(O)C1	-2.393	-5.218
CCn1ncnc1CN1CCC2(CCN(C)C2)CC1	-4.489	-17.97
CN1CCCC(N(C)S(=O)(=O)Cc2cccc(F)c2)C1 (stereo not drawn)	14.42	4.43
CN1CCCN(C(=O)c2csc3c2CCCC3)CC1	42.68	18.47
CN(C)CCSc1nnnn1-c1ccccc1	21.16	3.918
Cc1cscc1C(=O)Nc1ncnn1C	4.725	2.455
Cc1nn(C)c(C)c1CCCNC(=O)NC[C@@H](C)O	9.279	3.596
O=C(NC1CCCCC1)C1CCCNC1 (stereo not drawn)	8.058	11.04
CCN(CC)CC(=O)Nc1ccc2c(c1)OCO2	23.42	17.87
CCCn1cc(CN2CCC(S(=O)(=O)NCC)C2)cn1 (stereo not drawn)	17.42	4.377
NC(=O)COc1cccc(CNCCn2cccn2)c1	11.82	10.77
CS(=O)(=O)CCOCCN	-2.319	-11.57
CCSC(C)C(=O)N(C)CCc1ccncc1 (stereo not drawn)	21.7	6.131
Nc1nccc(-c2ccncc2)n1	3.213	-5.786
COCC(NC(=O)c1ccsc1)C(N)=O (stereo not drawn)	6.257	1.951
CNC(=O)NC1CCNC1 (stereo not drawn)	6.048	9.613
CN(C)c1cc(CNC(=O)C2CCOCC2)ccn1	-5.101	-11.59
O=C(CCS(=O)(=O)CCO)Nc1ccccc1	2.737	-14.24
COC(=O)c1ccccc1NC(=O)c1csnn1	-6.098	-5.794
Cc1cc(C)c(C)c(OCC(=O)N2CCN(C)CC2)c1	70.92	59.61
CC(C)=CCN1CCN(CCO)CC1CCO (stereo not drawn)	0.2292	-5.097

Once more, the final 4:

O=C(CCS(=O)(=O)CCO)Nc1ccccc1 read Mtb glucose medium: 2.737%; Mtb cholesterol medium: -14.24%.
COC(=O)c1ccccc1NC(=O)c1csnn1 read Mtb glucose medium: -6.098%; Mtb cholesterol medium: -5.794%.
Cc1cc(C)c(C)c(OCC(=O)N2CCN(C)CC2)c1 read Mtb glucose medium: 70.92%; Mtb cholesterol medium: 59.61%.
CC(C)=CCN1CCN(CCO)CC1CCO (stereo not drawn) read Mtb glucose medium: 0.2292%; Mtb cholesterol medium: -5.097%.

Source: ChEMBL document CHEMBL3988442, “University of Dundee, Small-Polar-MMV Screening Library” (2021).